Measured data: PubChem BioAssay AID504804 (Drosophila RNAi Screening Center, 2011)

Aim: 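Fly genes whose loss lessens doxorubicin-driven cell death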 (primary screen)
System: Drosophila Kc cells
Knock-down reagent: long dsRNA against Drosophila genes, 0.5 µg dsRNA per well
Time to read-out: 96 h (48 h knock-down, then 48 h drug)
Conditions: doxorubicin 5 µg/ml for 48 h, added 48 h after dsRNA
Detection: 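Viability measured as cellular ATP by luminescence after 48 h knock-down then 48 h doxorubicin at 5 µg/ml; unnormalised plate counts for each replicate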
Scale: raw ATP luminescence: higher = more viable cells, protection from doxorubicin
Rule for the call: 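z-score of 2 or more over plate mean in both duplicates, retained only when retests and separate dsRNAs confirm the protection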
In all, the deposit lists about 19,000 reagents; below is an unselected part of those that have a named target and a result. In the full data, 47 (0.25%) are marked active. 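Signals are raw, not normalised; exact z-scores behind calls not deposited; actives needed confirmation, so some wells reaching 2 SD are inactive.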 Unmarked entries are inactive. Names joined by + are all predicted targets of the reagent.

Gene	dsRNA	raw ATP luminescence, replicate 1	raw ATP luminescence, replicate 2
CG12851 (GeneID 37993)	DRSC04131	31987	42927
fne (GeneID 32245)	DRSC20332	3.52e5	3.20e5
Pef (GeneID 36111)	DRSC06695	63290	58987
CG4563 (GeneID 37901)	DRSC04474	51053	50647
CG30395 (GeneID 246589)	DRSC03896	63317	61753
dpr11 (GeneID 40800)	DRSC12561	64800	58857
dpr11 (GeneID 40800)	DRSC12562	71680	56860
dpr11 (GeneID 40800)	DRSC12563	63607	65493
CG6277 (GeneID 43251)	DRSC16008	57380	35730
CG8028 (GeneID 32923)	DRSC20075	3.71e5	2.96e5
trk (GeneID 34376)	DRSC03625	39890	70210
CG31550 (GeneID 40661)	DRSC12197	53247	64737
CG31550 (GeneID 40661)	DRSC12198	55573	28027
mthl6 (GeneID 38839)	DRSC10234	84243	83660
CG15443 (GeneID 33656)	DRSC00455	28847	26747
retinin (GeneID 53564)	DRSC09940	63663	55683
CG17029 (GeneID 39740)	DRSC10240	1.03e5	75813
TBC1D16 (GeneID 34431)	DRSC02841	38267	46677
Ebp (GeneID 38009)	DRSC04048	71127	70830
fon (GeneID 35211)	DRSC02507	1.21e5	81817
CG11722 (GeneID 41227)	DRSC14358	47740	47877
Sap130 (GeneID 39455)	DRSC09680	91283	76140
CG42540 (GeneID 38562)	DRSC08327	24093	13573
CG42540 (GeneID 38562)	DRSC08328	67370	71507
CG42540 (GeneID 38562)	DRSC08593	55910	48333
B-H1 (GeneID 32724)	DRSC19334	1.98e5	1.84e5
rad50 (GeneID 37564)	DRSC04523	62753	58927
Acbp2 (GeneID 38784)	DRSC11141	61557	65147
Cib2 (GeneID 37363)	DRSC04535	61467	54967
CG14605 (GeneID 40867)	DRSC12549	61863	62963
CG9518 (GeneID 32416)	DRSC20194	3.50e5	3.22e5
RabX2 (GeneID 31971)	DRSC18234	3.05e5	2.92e5
Agpat4 (GeneID 39819)	DRSC10446	36257	28870
PKD (GeneID 42203)	DRSC16200	74080	78420
CG10340 (GeneID 42020)	DRSC14232	48690	52020
Vha55 (GeneID 41550)	DRSC16896	57563	18533
Dph3 (GeneID 41352)	DRSC14923	56677	51567
CG4984 + CG4975	DRSC06908	58363	57347
atilla (GeneID 34647)	DRSC02971	55690	59137
Tmtc1 (GeneID 33455)	DRSC00147	3.11e5	3.20e5
Tmtc1 (GeneID 33455)	DRSC00151	2.94e5	3.32e5
CG9444 (GeneID 41175)	DRSC16493	66047	61970
mtDNA-helicase (GeneID 34307)	DRSC02912	20757	37353
CG5111 (GeneID 43085)	DRSC15717	56950	63600
CG31997 (GeneID 319064)	DRSC17105	2.73e5	2.41e5
papi (GeneID 33401)	DRSC00693	89197	78757
sip2 (GeneID 33979)	DRSC03154	26923	30953
CG1146 (GeneID 38313)	DRSC08189	68870	67383
loco (GeneID 42672)	DRSC15202	61870	81830
loco (GeneID 42672)	DRSC16989	45850	37520
CG1113 (GeneID 40629)	DRSC12163	71060	83340
Scp1 (GeneID 3355102)	DRSC20799	2.16e5	2.89e5
Scp1 (GeneID 3355102)	DRSC20803	2.48e5	2.56e5
Scp1 (GeneID 3355102)	DRSC20806	2.84e5	3.61e5
Rpp25 (GeneID 35574)	DRSC05002	62050	57177
CG5592 (GeneID 38662)	DRSC10524	62420	70307
CG2915 (GeneID 35754)	DRSC06842	37833	42290
gas (GeneID 37572)	DRSC04521	57333	61517
Ir7a (GeneID 31686)	DRSC17866	44000	42730
CG1344 (GeneID 35500)	DRSC04837	73390	57817
CG34323 (GeneID 5740207)	DRSC18916	1.62e5	1.60e5
se (GeneID 38973)	DRSC10713	81630	96887
Boh2 (GeneID 34559)	DRSC02777	32567	64667
bsf (GeneID 35100)	DRSC02035	1.00e5	65340
Ugt50B3 (GeneID 246614)	DRSC04778	76270	90610
Ugt50B3 (GeneID 246614)	DRSC04779	89863	99123

Next part; the last 14 above are carried over.
Gene	dsRNA	raw ATP luminescence, replicate 1	raw ATP luminescence, replicate 2
Scp1 (GeneID 3355102)	DRSC20803	2.48e5	2.56e5
Scp1 (GeneID 3355102)	DRSC20806	2.84e5	3.61e5
Rpp25 (GeneID 35574)	DRSC05002	62050	57177
CG5592 (GeneID 38662)	DRSC10524	62420	70307
CG2915 (GeneID 35754)	DRSC06842	37833	42290
gas (GeneID 37572)	DRSC04521	57333	61517
Ir7a (GeneID 31686)	DRSC17866	44000	42730
CG1344 (GeneID 35500)	DRSC04837	73390	57817
CG34323 (GeneID 5740207)	DRSC18916	1.62e5	1.60e5
se (GeneID 38973)	DRSC10713	81630	96887
Boh2 (GeneID 34559)	DRSC02777	32567	64667
bsf (GeneID 35100)	DRSC02035	1.00e5	65340
Ugt50B3 (GeneID 246614)	DRSC04778	76270	90610
Ugt50B3 (GeneID 246614)	DRSC04779	89863	99123
Acbp6 (GeneID 38782)	DRSC10217	54440	68933
Pli (GeneID 42821)	DRSC16792	34147	29660
CG7011 (GeneID 39657)	DRSC09347	80990	98987
CG11638 (GeneID 31050)	DRSC18167	43200	41830
CG11638 (GeneID 31050)	DRSC18640	43130	53810
CG7352 (GeneID 40997)	DRSC16233	60237	50967
indra (GeneID 38159)	DRSC08558	69443	77383
CG30148 (GeneID 37318)	DRSC06391	1.74e5	2.31e5
Gfat1 (GeneID 3354921)	DRSC21219	3.17e5	3.09e5
Reg-5 (GeneID 37968)	DRSC04647	73253	54353
RpL6 (GeneID 43723)	DRSC14323	29950	38200
Ssl2 (GeneID 43424)	DRSC14395	64360	49690
CG4497 (GeneID 34001)	DRSC02754	1.16e5	75367
CG32603 (GeneID 318109)	DRSC19409	3.69e5	3.39e5
CG43347 (GeneID 31991)	DRSC17982	2.43e5	2.55e5
CG43347 (GeneID 31991)	DRSC18446	3.66e5	3.83e5
CG32459 (GeneID 40502)	DRSC11852	59313	57683
Nph (GeneID 43559)	DRSC16342	49610	56710
Prosalpha4T2 (GeneID 37910)	DRSC04643	66090	48013
CG31269 (GeneID 318653)	DRSC15744	65570	67400
Acp32CD (GeneID 34531)	DRSC01858	40030	71103
Atf6 (GeneID 35480)	DRSC04743	90417	97587
Atf6 (GeneID 35480)	DRSC04889	43980	51383
Tango9 (GeneID 41450)	DRSC14173	73303	32973
MESK2 (GeneID 37451)	DRSC04258	71180	82160
CG31462 (retired record) (GeneID 326143)	DRSC14359	64550	68407
Det (GeneID 42077)	DRSC14489	81940	70820
CG7179 (GeneID 34059)	DRSC03020	28553	21027
dom (GeneID 45655)	DRSC04558	78557	73177
dom (GeneID 45655)	DRSC04559	42167	38173
CG13716 (GeneID 38567)	DRSC08325	1.00e5	95417
elg1 (GeneID 39770)	DRSC10229	18470	21647
CG2854 (GeneID 31219)	DRSC18595	51240	58850
CG14151 (GeneID 39201)	DRSC10153	76030	68607
ppk24 (GeneID 43702)	DRSC15093	55000	51960
CG14817 (GeneID 31145)	DRSC18547	49430	43740
Pect (GeneID 34716)	DRSC02867	97717	77297
Pect (GeneID 34716)	DRSC02868	44120	51847
CG42512 + CG32573	DRSC19532	4.19e5	3.28e5
CycA (GeneID 39340)	DRSC09132	96947	1.04e5
CycA (GeneID 39340)	DRSC11123	41570	36283
